Values from PubChem BioAssay AID1053208 (Peter MacCallum Cancer Centre, 2014)

- Test: 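Find knock-downs that sensitise mouse osteosarcoma cells to doxorubicin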 (primary screen)
- System: mouse osteosarcoma cells, early-passage culture from an engineered mouse model of fibroblastic bone tumour
- Reagents: siRNA pool against mouse genes, 40 nM
- Duration: about 120 h (48 h before drug, then 72 h with drug)
- Treatment: doxorubicin 100 nM for 72 h, roughly 30-40% inhibitory dose
- Measurement: 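Luminescent ATP signal taken as viability with or without 100 nM doxorubicin for 72 h; mean of two wells set against non-targeting siRNA and turned into robust z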
- Scale: viability z-score with doxorubicin and doxorubicin viability vs non-targeting: higher = more viable cells under doxorubicin; viability z-score without drug: higher = more viable cells with knock-down alone; z-score of drug to no-drug ratio: higher = less drug sensitisation by knock-down
- Call rule: 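Called active if knock-down leaves viability unchanged without drug (z within -2 to 2) but lowers it with doxorubicin (z at or under -2)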
Here is an unselected part of about 17,000 deposited reagents. In the full data, 788 (4.7%) got an active call. 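Calls rest on z-score classes alone; an extra cut-off of viability at most 70% of control was not applied to them.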 A number with no mark means an inactive call. No sequences are given here.

| gene symbol | combined z-score class | viability z-score with doxorubicin | viability z-score without drug | z-score of drug to no-drug ratio | doxorubicin viability vs non-targeting |
| --- | --- | --- | --- | --- | --- |
| Nop53 (GeneID 68077) | low cell count without drug only | -1.35 | -2.87 | 0.79 | 0.82 |
| Tmem218 (GeneID 66279) | no change with or without drug | 1.69 | 1.69 | 0.67 | 1.09 |
| Spon1 (GeneID 233744) | no change with or without drug | -1.12 | -0.67 | -0.67 | 0.84 |
| Dph3 (GeneID 105638) | no change with or without drug | 0.67 | 1.18 | 0 | 1 |
| Slc37a3 (GeneID 72144) | no change with or without drug | -1.57 | -1.35 | -0.67 | 0.8 |
| Trdmt1 (GeneID 13434) | no change with or without drug | 1.12 | -0.34 | 1.57 | 1.04 |
| Sesn1 (GeneID 140742) | no change with or without drug | 0.9 | 1.52 | 0 | 1.02 |
| Ybey (GeneID 216119) | no change with or without drug | -1.46 | -1.18 | -0.67 | 0.81 |
| B9d2 (GeneID 232987) | no change with or without drug | -0.67 | 0 | -0.56 | 0.88 |
| Tyw3 (GeneID 209584) | high cell count without drug only | 1.35 | 2.02 | 0.11 | 1.06 |
| Tdrd12 (GeneID 71981) | no change with or without drug | -0.9 | 0.17 | -0.9 | 0.86 |
| Arhgap28 (GeneID 268970) | no change with or without drug | 0 | 0.51 | -0.22 | 0.94 |
| Slc38a10 (GeneID 72055) | no change with or without drug | -1.12 | 0.34 | -1.24 | 0.84 |
| Slc35a5 (GeneID 74102) | no change with or without drug | -1.24 | -0.51 | -0.9 | 0.83 |
| Bglap3 (GeneID 12095) | no change with or without drug | -1.12 | -0.51 | -0.79 | 0.84 |
| Arhgef19 (GeneID 213649) | no change with or without drug | 1.35 | 0.34 | 1.24 | 1.06 |
| Wdr24 (GeneID 268933) | high cell count without drug only | 1.01 | 2.19 | -0.34 | 1.03 |
| Npl (GeneID 74091) | no change with or without drug | 1.35 | -1.18 | 2.47 | 1.06 |
| Pigt (GeneID 78928) | no change with or without drug | 0.11 | 1.18 | -0.56 | 0.95 |
| Parm1 (GeneID 231440) | no change with or without drug | -0.34 | -0.34 | 0 | 0.91 |
| Ifrd2 (GeneID 15983) | no change with or without drug | -1.57 | 1.01 | -2.14 | 0.8 |
| Spink5 (GeneID 72432) | no change with or without drug | 0.22 | 0.34 | 0.11 | 0.96 |
| Cdon (GeneID 57810) | no change with or without drug | -0.11 | 0.34 | -0.22 | 0.93 |
| Pard6g (GeneID 93737) | high cell count without drug only | 1.35 | 2.36 | -0.11 | 1.06 |
| Ube2r2 (GeneID 67615) | no change with or without drug | -0.45 | 0.17 | -0.45 | 0.9 |

A portion from the list above:
| gene symbol | combined z-score class | viability z-score with doxorubicin | viability z-score without drug | z-score of drug to no-drug ratio | doxorubicin viability vs non-targeting |
| --- | --- | --- | --- | --- | --- |
| Slc38a10 (GeneID 72055) | no change with or without drug | -1.12 | 0.34 | -1.24 | 0.84 |
| Slc35a5 (GeneID 74102) | no change with or without drug | -1.24 | -0.51 | -0.9 | 0.83 |
| Bglap3 (GeneID 12095) | no change with or without drug | -1.12 | -0.51 | -0.79 | 0.84 |
| Arhgef19 (GeneID 213649) | no change with or without drug | 1.35 | 0.34 | 1.24 | 1.06 |
| Wdr24 (GeneID 268933) | high cell count without drug only | 1.01 | 2.19 | -0.34 | 1.03 |
| Npl (GeneID 74091) | no change with or without drug | 1.35 | -1.18 | 2.47 | 1.06 |
| Pigt (GeneID 78928) | no change with or without drug | 0.11 | 1.18 | -0.56 | 0.95 |
| Parm1 (GeneID 231440) | no change with or without drug | -0.34 | -0.34 | 0 | 0.91 |

Continued.
| gene symbol | combined z-score class | viability z-score with doxorubicin | viability z-score without drug | z-score of drug to no-drug ratio | doxorubicin viability vs non-targeting |
| --- | --- | --- | --- | --- | --- |
| Tbc1d17 (GeneID 233204) | no change with or without drug | -0.22 | -0.51 | 0.22 | 0.92 |
| Clpx (GeneID 270166) | no change with or without drug | -0.56 | -0.84 | 0.11 | 0.89 |
| Zc3hav1l (GeneID 209032) | no change with or without drug | -1.12 | 1.01 | -1.69 | 0.84 |
| Cdc42bpg (GeneID 240505) | no change with or without drug | 0.45 | -0.17 | 0.67 | 0.98 |
| Rps6kl1 (GeneID 238323) | no change with or without drug | 1.57 | 0.17 | 1.69 | 1.08 |
| Gpr34 (GeneID 23890) | no change with or without drug | -0.22 | 0.17 | -0.22 | 0.92 |
| 2310030G06Rik (GeneID 66952) | no change with or without drug | -0.45 | 1.18 | -1.12 | 0.9 |
| F2r (GeneID 14062) | no change with or without drug | -0.22 | -0.17 | 0 | 0.92 |
| Gpr179 (GeneID 217143) | no change with or without drug | 0 | 0.84 | -0.45 | 0.94 |
| Abcg4 (GeneID 192663) | no change with or without drug | -0.11 | -0.17 | 0.11 | 0.93 |
| Dock2 (GeneID 94176) | no change with or without drug | 0.67 | -0.84 | 1.46 | 1 |
| Fkbp5 (GeneID 14229) | no change with or without drug | -0.45 | 0 | -0.34 | 0.9 |
| S100a1 (GeneID 20193) | no change with or without drug | 0.34 | 0.17 | 0.34 | 0.97 |
| Or6c209 (GeneID 258929) | no change with or without drug | -0.67 | -0.51 | -0.22 | 0.88 |
| Nmnat3 (GeneID 74080) | high cell count without drug only | 1.57 | 3.37 | -0.45 | 1.08 |
| Snai3 (GeneID 30927) | no change with or without drug | 1.8 | 1.01 | 1.24 | 1.1 |
| Ammecr1 (GeneID 56068) | no change with or without drug | 0 | -0.17 | 0.22 | 0.94 |
| Mpv17 (GeneID 17527) | no change with or without drug | 0 | -1.52 | 1.24 | 0.94 |
| Zbtb40 (GeneID 230848) | no change with or without drug | -0.11 | 0.17 | -0.11 | 0.93 |
| Or10q12 (GeneID 258341) | no change with or without drug | 0.79 | -1.85 | 2.47 | 1.01 |
| 1110056A04RIK | no change with or without drug | -1.35 | -1.18 | -0.56 | 0.82 |
| Or4f61 (GeneID 258442) | no change with or without drug | 0.67 | 1.01 | 0.11 | 1 |
| Tlr1 (GeneID 21897) | no change with or without drug | 0.22 | 1.01 | -0.34 | 0.96 |
| Fahd1 (GeneID 68636) | low cell count without drug only | -0.67 | -2.36 | 1.24 | 0.88 |
| Hmmr (GeneID 15366) | no change with or without drug | -0.67 | -0.84 | 0 | 0.88 |
